# Hit rate of the full screen: of about 330,000 compounds, about 1,000 (0.3%) were called active. The inconclusive results got no clear call from the source; some entries with a clear call stand among them for comparison. Calls come from the whole dose curve; as a rule, active = well fitted inhibition curve with a large enough effect; inconclusive = small, poorly fitted or top-dose-only effect; inactive = no such curve, though single readings can be large or run the other way; tested in mouse RAW 264.7 cells. Where the call is inconclusive, the potency comes from a doubtful curve fit.
# Assay: qHTS for Inhibitors of Cell Surface uPA Generation; note: nearly all actives have a fitted effect of over 55% in size
# Conditions: cell surface uPA generation assay; series mostly up to 38.3 µM; activity change, negative = inhibition: at the top concentration
# Method in brief: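 RAW 264.7 cells (4000/well) were plated overnight at 37 C and then given compounds in a 1:5 series (up to 38.3 uM final) plus reagent for 24 h. Intracellular ATP was measured by ATP-Lite luminescence and stays elevated when uPA-dependent LF entry is blocked.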
# % is set by controls: 0 for no effect and ±100 for the full control effect; potency is the fitted concentration of half-maximal effect.
SMILES,Potency,"activity change, negative = inhibition"
CN(C)c1ccc(/C=N/NC(=O)c2ccn(C)n2)cc1,"inconclusive: 4.47 µM [inhibitor, partial curve]",–
COc1cc(OC)c2c(-c3ccccc3)cc(=O)oc2c1C(CCN1CCCCC1)c1ccc2c(c1)OCO2 (stereo unspecified),"inconclusive: 12.6 µM [inhibitor, partial curve, poor fit]",–
C(=C\c1ccco1)/c1nc2ccccc2[nH]1,active: 7.08 µM,–
COc1ccc(OC)c(NC(=O)CSc2nc3[nH]c(=O)[nH]c(=O)c3s2)c1,–,inactive: 0.69%
O=C(COC(=O)c1cc(S(=O)(=O)N2CCOCC2)c(Cl)cc1Cl)NCc1ccco1,–,inactive: -6.54%
CCCOc1ccc(CSc2nc3ccccc3[nH]2)cc1,"inconclusive: 5.01 µM [inhibitor, partial curve, poor fit]",–
O=C(NCc1ccc(F)cc1)c1cc2c(s1)CS(=O)(=O)C2,"inconclusive: 12.6 µM [inhibitor, single point]",–
CC(NC(=O)c1cc2cc(F)ccc2[nH]1)c1ccccc1 (stereo unspecified),"inconclusive: 0.794 µM [inhibitor, full curve, poor fit]",–
CCCCNCCCOc1ccc(C)cc1Br,"inconclusive: 12.6 µM [inhibitor, single point]",–
CCOc1ccccc1/C=C(/NC(=O)c1ccccc1)C(=O)N1CCCCC1,–,inactive: -1.1%
COC(=O)c1ccc(NC(=O)Cn2nnc(-c3cccs3)n2)cc1,–,inactive: 7.64%
CC(=O)c1cccc(NC(=S)NC(=O)c2ccccc2Cl)c1,–,inactive: 5.79%
CCOc1cc(/C=C(\CC(=O)O)c2nc3ccccc3s2)ccc1OCC(=O)Nc1cccc(C(F)(F)F)c1,–,inactive: 6.91%
O=C(NCc1ccccc1Cl)C1CCN(S(=O)(=O)c2ccc(N3CCCC3=O)cc2)CC1,"inconclusive: 11.2 µM [inhibitor, partial curve, poor fit]",–
Cc1ccc(Nc2nc(CSc3nnc(-c4cccnc4)n3-c3ccccc3C)cs2)cc1,–,inactive: 0.0262%
COc1cc(/C=N\NC(=O)c2nonc2N)c(OC)cc1Br,active: 7.94 µM,–
CCCc1cc(=O)[nH]c(-n2[nH]c3c(c2=O)CCCC3)n1,–,inactive: -1.2%
CCOP(=O)(OCC)c1nc(-c2cccc3ccccc23)oc1N1CCCCC1,–,inactive: -1.61%
Cc1[nH]c2ccccc2c1C1=NNC(=Nc2ccc(F)cc2)SC1,"inconclusive: 12.6 µM [inhibitor, single point]",–
COc1ccc(S(=O)(=O)NC2CCc3ccccc32)cc1OC (stereo unspecified),–,inactive: 22.2%
COC(=O)N1C(=O)[C@](c2ccsc2)(C(C)C)N1C(=O)OC,"inconclusive: 7.08 µM [inhibitor, partial curve]",–
O=C(NCCc1ccccc1)c1cc(-c2ccncc2)nc2ccc(S(=O)(=O)N3CCOCC3)cc12,"inconclusive: 12.6 µM [inhibitor, single point]",–
Brc1ccc2nc(-c3cccs3)c(NCC3CCCO3)n2c1 (stereo unspecified),"inconclusive: 14.1 µM [inhibitor, partial curve, poor fit]",–
COc1ccc(-c2cc(C)no2)cc1S(=O)(=O)NCCCN(C)Cc1ccccc1,"inconclusive: 1.41 µM [inhibitor, partial curve, poor fit]",–

SMILES,Potency,"activity change, negative = inhibition"
CCCOc1ccc(N2C(=O)CC(N(CCc3ccc(OC)cc3)C(=O)c3ccccc3)C2=O)cc1 (stereo unspecified),–,inactive: -9.89%
CC[C@]12c3[nH]c4ccc(OC)cc4c3CCN1C(=O)C(CC(=O)NC/C=C(\C)CCC=C(C)C)C[C@@H]2C(=O)N1CCN(C(=O)c2ccco2)CC1 (stereo partly specified),"inconclusive: 28.2 µM [inhibitor, single point]",–
COc1cc(S(=O)(=O)N2CCCCCC2)c(OC)cc1Br,–,inactive: -4.4%
COC(=O)C1=C(C(=O)OC)[C@@H]2N(C)c3ccccc3[C@@]23C[C@@H](C(=O)OC)N(C(=O)C2CCC2)C3=N1,"inconclusive: 12.6 µM [inhibitor, single point]",–
COc1ccc(C(=O)c2c(-c3cccc(C)c3)oc3ccc(N4CCOCC4)cc23)cn1,"inconclusive: 10 µM [inhibitor, single point]",–
CCOC(=O)NN1C(=O)c2ccccc2NC1c1ccc(OC)cc1OC (stereo unspecified),"inconclusive: 12.6 µM [inhibitor, single point]",–
O=C(O)CSCc1cn2cc(Cl)ccc2n1,–,inactive: 0.813%
Cc1ccc(NS(=O)(=O)c2ccc3c(c2)NC(=O)CO3)cc1C,–,inactive: 5.63%
O=c1cnn([C@@H]2O[C@H](CO)[C@@H](O)[C@H]2O)c(=O)[nH]1,"inconclusive: 0.316 µM [inhibitor, full curve, poor fit]",–
Cc1nc2cc(-c3ccccc3)nn2c(N)c1-c1ccccc1,"inconclusive: 12.6 µM [inhibitor, partial curve]",–
Cc1cccc(CNC(=O)Cn2ccc3cc(S(=O)(=O)N4CCCCCC4)ccc32)c1,"inconclusive: 1.26 µM [inhibitor, full curve]",–
CCCCNC(=S)Nc1ccc(SC(F)F)cc1,–,inactive: -25.2%
O=C(CN1CCOCC1)NNc1nc(-c2ccccc2)c2cc(Br)ccc2n1,–,inactive: -12.7%
COc1ccc2oc(C(=O)Nc3nc(C)cs3)c(C)c2c1,active: 10 µM,–
CCCCCCCN(C(=O)CCl)c1cccc(C)c1,–,inactive: -9.24%
CN(C)CC/C=C1\c2cc(F)ccc2CSc2ccccc21,"inconclusive: 10 µM [inhibitor, partial curve]",–
CN1C(=O)C(O)(CC(=O)c2ccc(F)cc2)c2cc(Br)ccc21 (stereo unspecified),"inconclusive: 28.2 µM [inhibitor, single point]",–
CC(C)[C@H](NC(=O)c1ccccc1Cl)C(=O)OCC(=O)N1CCCCC1,"inconclusive: 12.6 µM [inhibitor, single point]",–
O=c1c2ccccc2nc2c3ccccc3cnn12,"inconclusive: 12.6 µM [inhibitor, single point]",–
CCc1ccc(-c2cc(C)no2)cc1S(=O)(=O)N1CCCN(Cc2ccc(F)cc2)C1,"inconclusive: 10 µM [inhibitor, partial curve]",–
CCCCc1ccc(NC(=S)N2CCC(O)CC2)cc1,–,inactive: 2.15%
CC(C)[C@H](NC(=O)c1ccccc1)C(=O)OCC(=O)NCc1ccc2c(c1)OCO2,–,inactive: 0.371%
CC(C)Cc1cc(C(=O)Nc2ccc3c(c2)OCO3)no1,"inconclusive: 7.08 µM [inhibitor, single point]",–
O=C(CSc1nc(-c2ccccc2)cc(=O)[nH]1)N1CCc2ccccc21,–,inactive: 12.4%

# Of the compounds above, these contain two or more sulfur atoms:
SMILES,Potency,"activity change, negative = inhibition"
COc1ccc(OC)c(NC(=O)CSc2nc3[nH]c(=O)[nH]c(=O)c3s2)c1,–,inactive: 0.69%
O=C(NCc1ccc(F)cc1)c1cc2c(s1)CS(=O)(=O)C2,"inconclusive: 12.6 µM [inhibitor, single point]",–
Cc1ccc(Nc2nc(CSc3nnc(-c4cccnc4)n3-c3ccccc3C)cs2)cc1,–,inactive: 0.0262%
CCCCNC(=S)Nc1ccc(SC(F)F)cc1,–,inactive: -25.2%

# Continuation.

SMILES,Potency,"activity change, negative = inhibition"
O=S(=O)(c1ccccc1)N1CCN(c2ccccc2)CC1,"inconclusive: 22.4 µM [inhibitor, single point]",–
COc1ccc(Cl)cc1NC(=O)Cn1nnc(C(=O)NCCc2ccc(OC)c(OC)c2)c1N,–,inactive: -1.91%
O=C(COC(=O)/C=C/c1ccc(Cl)cc1)NC1CCCCCC1,"inconclusive: 0.0126 µM [inhibitor, partial curve, poor fit]",–
COc1cc(S(=O)(=O)N(C)C2CCCCC2)c(C)cc1C,"inconclusive: 5.62 µM [inhibitor, partial curve, poor fit]",–
Cn1c(C(=O)NCCN2CCN(c3ccccc3F)CC2)cc2c(=O)n(C)c3ccccc3c21,–,inactive: -16.1%
O=C(/C=C/c1ccccc1)c1ccccc1O,"inconclusive: 12.6 µM [inhibitor, single point]",–
Cc1ccc(C)c(N2CCN(C(=O)C3CCN(S(=O)(=O)c4c(C)noc4C)CC3)CC2)c1,"inconclusive: 8.91 µM [inhibitor, partial curve]",–
CCCc1nnc2n1N=C(c1ccc(OC)c(OC)c1)CS2,"inconclusive: 1.41 µM [inhibitor, partial curve, poor fit]",–
CC(=O)c1cccc(NC(=O)CCc2nnc3ccc(N4CCN(C)CC4)nn23)c1,"inconclusive: 12.6 µM [inhibitor, single point]",–
COc1cc(-c2nnc(NC(=O)CS(=O)(=O)c3ccc(F)cc3)o2)cc(OC)c1OC,–,inactive: -7.68%
CCc1cc(-c2[nH]ncc2-c2ccc([N+](=O)[O-])cc2)c(O)cc1OC,–,inactive: 7.62%
C#CCOCCOCCOCCNc1nc(N2CCN(C(=O)[C@H](CCC(=O)O)n3cc(C(N)[C@H](C)CC)nn3)CC2)nc(N2CCN(C(=O)[C@H](CCC(=O)O)n3cc(C(N)[C@H](C)CC)nn3)CC2)n1 (stereo partly specified),"inconclusive: 14.1 µM [inhibitor, single point]",–
CCn1c(C)nc([N+](=O)[O-])c1Sc1ccc(F)cc1,"inconclusive: 6.31 µM [inhibitor, partial curve, poor fit]",–
COc1ccc([N+](=O)[O-])cc1NC1CCN(C(=O)c2cccs2)CC1,–,inactive: 4.5%
Nc1ccc(-c2cc3ccccc3c(=O)o2)cc1,"inconclusive: 10 µM [inhibitor, partial curve, poor fit]",–
NC(=O)[C@H]1CC2(CC(c3cccc(NC(=O)COc4ccc(Cl)cc4)c3)=NO2)CN1C(=O)CC(c1ccccc1)c1ccccc1 (stereo partly specified),"inconclusive: 31.6 µM [inhibitor, single point]",–
CCOC(=O)N1CCN(C(=O)c2ccc(Cn3c(=S)[nH]c4ccc(Br)cc4c3=O)cc2)CC1,–,inactive: -1.37%
COc1ccc2c(c1)[nH]c1c(=O)n(CCC3=CCCCC3)cnc12,–,inactive: -4.76%
O=c1c2ccccc2oc2c1oc1ccccc12,"inconclusive: 25.1 µM [inhibitor, single point]",–
O=C(Cn1c(=O)oc2ccccc21)Nc1nc(-c2ccccc2)cs1,–,inactive: -5.9%
C#CCN1C=C(C(=O)OCC)C(C)N(Cc2ccccc2I)S1(=O)=O (stereo unspecified),"inconclusive: 10 µM [inhibitor, partial curve, poor fit]",–
O=C(Nc1ccc(Br)cc1)C1OCCc2ccccc21 (stereo unspecified),–,inactive: -4.75%
CCOc1ccc(N(CC(=O)NCc2ccc(F)cc2)C(=O)c2ccco2)cc1,–,inactive: 17.2%

# From PubChem BioAssay AID540303 (National Center for Advancing Translational Sciences (NCATS), 2011)
